Measurements reported in PubChem BioAssay AID1259308 (NCATS, 2017).

- Test: 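Knock-downs that increase output of a recombinant reporter protein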 (primary screen)
- System: human HEK293 embryonic kidney cells stably expressing firefly luciferase (HEK-CMV-Luc2-Hygro)
- Reagent: single siRNA against human genes, 0.8 pmol siRNA per well
- Timing: 72 h
- Measurement: 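Reporter luminescence and viable-cell signal on separate replicate plates, given as percent of non-targeting control and median/MAD z-scores, plus per-cell luciferase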
- Direction: total luciferase, z-score and total luciferase, % of control: higher = more reporter protein produced; luciferase per cell, z-score: higher = more reporter output per viable cell; viable cells, % of control: higher = more viable cells
- Call rule: 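Active when the median/MAD z-score for overall luciferase is greater than 3; a gene was taken forward for validation with new siRNAs if at least two of its three siRNAs passed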
- Calls: active = raised luciferase; inactive = no rise
Here is a random part of about 59,000 deposited reagents. About 1,510 of all reagents (2.6%) count as active. 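Calls use total luciferase alone and ignore viability, so some active siRNAs may act by altering cell number.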 Unmarked entries are inactive. The numbers tell different reagents against one gene apart.

gene knocked down	reagent no.	total luciferase, z-score	total luciferase, % of control	luciferase per cell, z-score	viable cells, % of control
CLRN1	1	-0.572	70.5	-0.747	95.9
CLRN1	2	0.718	96.2	0.739	88.5
CLRN1	3	1.5	112	0.815	101
CD300E	1	-1.08	60.4	-1.1	90.1
CD300E	2	0.684	95.5	0.639	90.2
CD300E	3	-0.83	65.4	-0.976	94.5
SCARA5	1	0.0193	82.3	0.332	84.2
SCARA5	2	-0.716	67.6	-0.499	86.2
SCARA5	3	0.357	89	0.437	88.6
SORT1	1	0.434	90.5	0.401	91
SORT1	2	-0.671	68.5	-0.658	91.1
SORT1	3	0.00487	82	-1	119
RBM14	1	1.78	117	1.37	91.3
RBM14	2	-0.0326	81.2	0.0383	89.9
RBM14	3	1.19	106	1.41	81.3
PHC1	1	0.881	99.4	0.459	98.4
PHC1	2	-0.942	63.2	-0.958	90.8
PHC1	3	-0.941	63.2	-1.32	99.8
ANO3	1	-0.968	62.6	-0.632	82.7
ANO3	2	-1.22	57.6	-0.319	70
ANO3	3	0.518	92.2	0.0707	101
HERC1	1	-0.11	79.7	0.291	82.5
HERC1	2	-0.342	75.1	-0.957	108
HERC1	3	-0.767	66.6	-1.15	101
JADE1	1	-0.0472	80.9	0.454	80.3
JADE1	2	1.73	116	1.22	94.3
JADE1	3	0.217	86.2	0.138	92.9
FADS2	1	0.911	100	0.518	97.5
FADS2	2	2.69	135	1.68	97.2
FADS2	3	-1.38	54.4	-1.64	93.6
DEFB124	1	-0.628	69.4	-0.626	91.5
DEFB124	2	0.254	86.9	-0.212	103
DEFB124	3	-0.573	70.5	-0.0577	80
COPS9	1	0.447	90.8	1.26	72.8
COPS9	2	-2.48	32.5	-2.19	64.7
COPS9	3	3.67 (active)	155	2.13	98.8
PDK4	1	0.465	91.1	0.764	83.3
PDK4	2	1.73	116	1.55	86.3
PDK4	3	-0.923	63.5	-0.68	84.9
PRPS1	1	-0.747	67	-0.588	87.4
PRPS1	2	-0.811	65.8	-1.32	104
PRPS1	3	0.165	85.2	-0.115	98.1
CYP2E1	1	-0.312	75.7	-0.694	102
CYP2E1	2	-0.585	70.3	-0.384	86.9
CYP2E1	3	-1.49	52.3	-1.59	88.9
ARHGAP24	1	-0.28	76.3	-0.128	88.2
ARHGAP24	2	-0.238	77.2	-0.332	94.1
ARHGAP24	3	0.0239	82.4	-0.301	99.6
SUPT5H	1	-0.398	74	-0.649	98
SUPT5H	2	-1.92	43.8	-1.34	69.7
SUPT5H	3	-0.605	69.8	-0.109	80.3
BTN2A3P	1	0.954	101	1.56	74.7
BTN2A3P	2	1.82	118	1.67	85.1
BTN2A3P	3	-0.757	66.8	-0.772	91.5
PARP2	1	-0.38	74.3	0.187	79.1
PARP2	2	-0.4	73.9	-0.824	103
PARP2	3	-0.161	78.7	-0.23	93.4

Part of the list above in another layout:
{"gene knocked down": "PRPS1", "reagent no.": 3, "total luciferase, z-score": 0.165, "total luciferase, % of control": 85.2, "luciferase per cell, z-score": -0.115, "viable cells, % of control": 98.1}
{"gene knocked down": "CYP2E1", "reagent no.": 1, "total luciferase, z-score": -0.312, "total luciferase, % of control": 75.7, "luciferase per cell, z-score": -0.694, "viable cells, % of control": 102}
{"gene knocked down": "CYP2E1", "reagent no.": 2, "total luciferase, z-score": -0.585, "total luciferase, % of control": 70.3, "luciferase per cell, z-score": -0.384, "viable cells, % of control": 86.9}
